Laboratory results as given in patent US6281214A, “Biphenyl derivatives” (Eisai Co., Ltd, priority 1994, dated 2001).

Biological target: adrenergic α1 receptor
Assay: adrenergic α1 receptor binding test ([3H] Prazosin Binding Test)
Parameters: species or system SD rats
Conditions: 1 nM [3H] Prazosin, rat cortex, room temperature, 60 minutes
Procedure: The compounds of the present invention were subjected to each of serotonin S2 receptor binding test, dopamine D2 receptor binding test and adrenergic α1 receptor binding test.
The following reagents were used in this test.
These reagents and samples were each dissolved in 10% ethanol before use. Among them, water-insoluble compounds were each dissolved in ethanol and the obtained solution was diluted with distilled water to an ethanol concentration of 10%. Further, Methylsergide maleate was used in a state dissolved in distilled water.
SD rats aged 6 to 8 weeks were used.
SD rats were each slaughtered with a guillotine to extirpate its cerebrum. The cortex and corpus striatum were separated from the cerebrum. The former was used in serotonin S2 receptor binding test and adrenergic α1, receptor binding test, while the latter was used in dopamine D2 receptor binding test. […]
Each IC50 value was calculated by the probit method and each Ki value was determined by the following formula: [formula]
In the above formula, C represents the concentration of radioligand, and Kd represents the affinity of radioligand for the receptor as determined by the Scatchard analysis. […]
This test was conducted in the same manner as that of the binding test of [^3 H] […] Prazosin at room temperature for 60 minutes and that the binding detected in the presence of 10 μl of Phentolamine was regarded as nonspecific binding.

Cc1nc2n(c(=O)c1CCN1CCC(c3noc4cc(F)ccc34)CC1)CCCC2 [Risperidone, risperidone]
Ki: 2.94 nM
